Data from PubChem BioAssay AID1347076 (National Center for Advancing Translational Sciences (NCATS), 2019).
Screen size: about 400,000 compounds; about 13,000 (3.2%) were called active. The inconclusive results got no clear call from the source; some entries with a clear call stand among them for comparison. Calls come from the whole dose curve; as a rule, active = well fitted cell-killing curve with a large enough effect; inconclusive = small, poorly fitted or top-dose-only effect, or effect the other way; inactive = flat fitted curve, though single readings scatter. Where the call is inconclusive, the potency comes from a doubtful curve fit.

Test: qHTS assay for MDR1-selective chemotherapeutics: Primary screen using the drug-selected MDR subline cells KB-V1; note: nearly all actives have a fitted effect of over 60% in size
Settings: KB-V1 MDR cells viability, CellTiter-Glo, 72 h; series mostly up to 46.1 µM
Summary of the method: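 Cells of the MDR subline KB-V1 are plated, dosed with compound at multiple concentrations, and incubated 72 h at 37 degrees C; CellTiter-Glo is then added and luminescence read after 10 min.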
Potency is the fitted concentration of half-maximal effect.

Row | Structure (SMILES) | Potency
1 | Cc1ccc(F)cc1NC(=O)Cc1ncc(C(F)(F)F)cc1Cl | inconclusive: 20.6 µM [cytotoxic, partial curve, poor fit]
2 | CCC(C)NC(=O)C1(C)CCC(=O)N1CCc1ccc(OC)c(OC)c1 (stereo unspecified) | inconclusive: 8.2 µM [cytotoxic, partial curve, poor fit]
3 | COc1ccc(-c2cc(-c3ccc(Br)cc3)nc3ncnn23)cc1OC | inconclusive: 9.2 µM [cytotoxic, partial curve]
4 | COc1ccc(CCNC(=O)CCN2C(=O)c3cccc4cccc(c34)C2=O)cc1OC | inactive
5 | CCc1ccc(OCC(=O)N/N=C\c2ccco2)c([N+](=O)[O-])c1 | inactive
6 | COc1ccc2cc(-c3cc(C(=O)OCC(=O)Nc4c(C)n(C)n(-c5ccccc5)c4=O)c4ccccc4n3)ccc2c1 | inconclusive: 29.1 µM [cytotoxic, single point]
7 | CSc1ccccc1NC(=O)CN(c1cccc(C)c1)S(C)(=O)=O | inactive
8 | COCCNc1nc(N)c([N+](=O)[O-])c(NCC2CCCO2)n1 (stereo unspecified) | inconclusive: 0.517 µM [cytotoxic, full curve, poor fit]
9 | CCOC(=O)C1CCCN(C(=S)Nc2ccc(C)cc2C)C1 (stereo unspecified) | active: 14.6 µM
10 | CC(=O)Oc1oc(-c2ccccc2)nc1/C=N/c1ccccn1 | inactive
11 | COc1ccc(S(=O)(=O)N2C3CCC2CC(NC(=O)NC2CCCCC2)C3)cc1 (stereo unspecified) | active: 16.4 µM
12 | CCCCSCCCNC(=S)Nc1ccccc1C | inconclusive: 29.1 µM [cytotoxic, single point]
13 | COc1ccc(NC(=O)c2nnn(CC(=O)Nc3ccc4c(c3)OCO4)c2N)c(OC)c1 | inactive
14 | COc1cc(C2CC(=O)Oc3cc(C)c(Cl)c(C)c32)cc(OC)c1OC (stereo unspecified) | inactive
15 | O=C(CN1C(=O)C2(SCC(=O)N2c2ccccc2)c2ccccc21)NCc1ccccc1Cl (stereo unspecified) | inactive
16 | O=c1[nH]c(SCc2cccc(Cl)c2)nc2ccccc12 | inactive
17 | CC(C)OP(=O)(OC(C)C)C(NC(=O)c1ccc(Br)cc1)c1ccccc1 (stereo unspecified) | active: 3.66 µM
18 | Cc1ccc(Nc2nc(NCC3CCCO3)nc(N)c2[N+](=O)[O-])cc1C (stereo unspecified) | inconclusive: 2.31 µM [cytotoxic, full curve]
19 | CCS(=O)(=O)N1CCCC(c2nc(-c3cccc(OC)c3)no2)C1 (stereo unspecified) | inactive
20 | CCOC(=O)Cc1cc(=O)n2[nH]c(-c3ccccc3)c(-c3ccccc3)c2n1 | inconclusive: 29.1 µM [cytotoxic, single point]
21 | CCCCNC(=O)Oc1cccc(N2CCCC2=O)c1 | inconclusive: 10.3 µM [rising, partial curve]

As entered above.
COc1ccc2cc(-c3cc(C(=O)OCC(=O)Nc4c(C)n(C)n(-c5ccccc5)c4=O)c4ccccc4n3)ccc2c1 – Potency: inconclusive: 29.1 µM [cytotoxic, single point]
CCc1ccc(OCC(=O)N/N=C\c2ccco2)c([N+](=O)[O-])c1 – Potency: inactive
